Assay [1] deals with T1, Danio rerio CGI99 (subunit of Dr-tRNA-LC, FL and TR forms) (Danio rerio) (UniProt Q7ZUH1).
T1 sequence: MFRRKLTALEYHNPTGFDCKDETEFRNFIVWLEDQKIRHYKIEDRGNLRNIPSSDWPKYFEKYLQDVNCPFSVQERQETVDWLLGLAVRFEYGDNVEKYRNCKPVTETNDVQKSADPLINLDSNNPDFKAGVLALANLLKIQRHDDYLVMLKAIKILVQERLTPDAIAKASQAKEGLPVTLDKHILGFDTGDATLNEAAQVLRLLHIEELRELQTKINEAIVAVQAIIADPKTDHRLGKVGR
Nature of the assay: cryo-EM structure; Dr-tRNA-LC-TR at 0.95 mg/ml with 2 mM MnCl2, 2 mM GTP and twofold molar excess of tRNAIle (RNA not seen in the map); 3.3 Å reconstruction, atomic model built; both purified.

In assay [2] the target is T2, Danio rerio DDX1, full length, His6-MBP fusion (subunit of Dr-tRNA-LC-FL) (Danio rerio) (UniProt F1R2L8).
T2 sequence: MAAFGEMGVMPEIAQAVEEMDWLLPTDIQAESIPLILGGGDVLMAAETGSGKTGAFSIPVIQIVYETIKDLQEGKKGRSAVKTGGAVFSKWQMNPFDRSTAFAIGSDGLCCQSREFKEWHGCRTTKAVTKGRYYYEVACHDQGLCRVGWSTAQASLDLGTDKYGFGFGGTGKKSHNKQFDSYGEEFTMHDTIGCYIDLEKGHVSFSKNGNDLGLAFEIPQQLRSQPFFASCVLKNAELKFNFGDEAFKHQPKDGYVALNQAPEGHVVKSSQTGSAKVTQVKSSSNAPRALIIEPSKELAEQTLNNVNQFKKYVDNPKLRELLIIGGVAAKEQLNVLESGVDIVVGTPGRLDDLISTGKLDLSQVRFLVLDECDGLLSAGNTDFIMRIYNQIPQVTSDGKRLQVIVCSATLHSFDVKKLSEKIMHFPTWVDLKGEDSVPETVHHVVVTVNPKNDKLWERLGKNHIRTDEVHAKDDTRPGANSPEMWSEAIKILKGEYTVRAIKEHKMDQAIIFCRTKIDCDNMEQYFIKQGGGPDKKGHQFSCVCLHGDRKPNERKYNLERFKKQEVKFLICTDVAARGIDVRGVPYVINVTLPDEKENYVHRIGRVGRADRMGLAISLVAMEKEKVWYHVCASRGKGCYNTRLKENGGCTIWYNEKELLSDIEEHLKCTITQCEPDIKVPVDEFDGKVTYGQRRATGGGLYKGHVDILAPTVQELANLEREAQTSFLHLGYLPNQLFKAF
Nature of the assay: co-expression and co-purification (Ni affinity chromatography, then gel filtration); all five subunits co-expressed in Sf9 cells; complex captured on a HisTrap column via His6-MBP-DDX1, tag removed with TEV, Superose 6 Increase gel filtration; 25 mM Hepes pH 7.5, 150 mM NaCl, 5% glycerol. For orientation: Size exclusion chromatography separates by hydrodynamic size, large species first.

These are yes or no findings as the source states them, for the method shown. Binding can be weak; no strength is given. For some assays here: Binding seen in cells or lysates may run through a third protein. For some assays here: Sequences can lack the tags named with a protein.

“Danio rerio ASHWIN N-terminal part, residues 1-83 (subunit of Dr-tRNA-LC-TR) (domain or fragment)”: in assay [1], the binding entry is listed as “binds”.

Take “Danio rerio ASHWIN, full length (subunit of Dr-tRNA-LC-FL)”: the binding entry in assay [2] is listed as “binds”.
